Earlier results, collected in publication PMC10623564, “Ruthenium-Based Photoactivated Chemotherapy” (Journal of the American Chemical Society, 2023).

| Compound | photoreactivity at pH 7.5 (pH 7.5, phenol groups deprotonated) | photosubstitution observed (NIR light activated, works via a PDT mechanism) |
| --- | --- | --- |
| Oc1cccc(-c2cccc(O)n2)n1.[Ru+2].c1ccc(-c2ccccn2)nc1.c1ccc(-c2ccccn2)nc1 [3^2+, [Ru(bpy)2(6,6′-dOHbpy)]^2+] | photostable | – |
| CC(=O)C=C(C)[O][Ru+].c1ccc(-c2ccccn2)nc1.c1ccc(-c2ccccn2)nc1 [[Ru(bpy)2(acac)]^+, reference compound] | – | no reported sign of photosubstitution |
